Source: PubChem BioAssay AID1259303 (Sanger Institute, 2017)
Assay: 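Follow-up kinase siRNA test for drug synergy in colorectal cancer cells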 (follow-up of hits). Cell system: human COLO320HSR colorectal cancer cells. Reagents: single siRNA against human genes. Conditions: anchor drug BYL719 (1 µM), cetuximab (5 µg/ml) or trametinib (10 nM), or DMSO vehicle alone. Detection: 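Synergy of each knock-down with BYL719 (1 µM), cetuximab (5 µg/ml) or trametinib (10 nM) versus drug alone, plus mean viability normalised to non-targeting pool 2 siRNA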. Direction: synergy score with BYL719: higher = stronger combined killing with BYL719; synergy score with cetuximab: higher = stronger combined killing with cetuximab; synergy score with trametinib: higher = stronger combined killing with trametinib. Rule for the call: 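Called active if the synergy score tops 0.10 with BYL719, cetuximab or trametinib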. Meaning of the calls: active = synergy with at least one drug; inactive = no synergy found.
In all, the deposit lists 160 reagents; this is an unselected part. In the full data, 11 (6.9%) are marked active. 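Viability capped at 1; how the synergy score is calculated is not stated; four separate siRNAs target each gene.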 The numbers tell different reagents against one gene apart. Not all columns of the deposit are shown. No sequences are given here. Not stated in the record: the amount of reagent, the time to read-out.

gene	reagent	synergy score with BYL719	synergy score with cetuximab	synergy score with trametinib	Call
CDKN2D	1	-0.0704	0.0742	-0.0868	inactive
CDKN2D	2	-0.0182	-0.00982	-0.00982	inactive
CDKN2D	3	-0.162	-0.113	-0.113	inactive
CDKN2D	4	0.0739	0.0304	-0.0263	inactive
EPHA6	1	0.0425	-0.171	-0.253	inactive
EPHA6	2	0.114	-0.0263	-0.0497	active
EPHA6	3	-0.0648	-0.107	-0.195	inactive
EPHA6	4	0.0866	0	0.112	active
CAMK2N1	1	0.00509	-0.0334	-0.115	inactive
CAMK2N1	2	-0.0634	-0.0582	-0.204	inactive
CAMK2N1	3	0.00714	-0.0283	-0.113	inactive
CAMK2N1	4	-0.0181	-0.0792	-0.158	inactive
GRK5	1	-0.136	0	0	inactive
GRK5	2	-0.151	0	0	inactive
GRK5	3	-0.236	-0.143	-0.158	inactive
GRK5	4	-0.242	0.035	-0.1	inactive
PIK3CA	1	-0.173	0.00987	-0.013	inactive
PIK3CA	2	-0.189	0.0631	-0.171	inactive
PIK3CA	3	-0.0115	-0.0493	-0.0493	inactive
PIK3CA	4	-0.161	-0.0101	-0.0175	inactive

Just “synergy score with trametinib” (2 entries from above):
EPHA6 #2: -0.0497
EPHA6 #3: -0.195
